PubChem BioAssay AID1671195, Yale University – 2021
In all, the deposit lists about 22,000 reagents; this is a part drawn at random. Over the whole deposit, about 1,510 (6.9%) got an active call. 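Active includes knockdowns raising or lowering LDL uptake; positive z-scores mean more uptake, negative mean less.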 The numbers tell different reagents against one gene apart.

- Test: 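Genes whose knockdown alters LDL uptake in liver cancer cells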 (primary screen)
- System: human Huh7 hepatoma cells
- Reagent: siRNA pool against human genes, 18 nM
- Time to read-out: about 2 to 2.5 days of knockdown, then 8 h LDL uptake
- Conditions: DiI-labelled LDL at 30 µg/ml for 8 h, in lipoprotein-deficient serum medium
- Detection: 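Fluorescent LDL signal imaged in cells, scaled to the plate median, robust z-score for each replicate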
- Scale: robust z-score: higher = more LDL uptake after knockdown
- Call rule: 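a gene counts as active if at least two replicate z-scores exceed ±2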

Gene | reagent | robust z-score, replicate 1 | robust z-score, replicate 2 | robust z-score, replicate 3 | call
CFAP141 | 1 | 0.125 | 0.237 | 0.75 | inactive
PLK1 | 1 | 0.234 | 1.12 | -0.246 | inactive
RNF32-DT | 1 | -0.202 | 0.688 | -0.116 | inactive
CYMP-AS1 | 1 | -0.0554 | 0.258 | 1.12 | inactive
LOC442498 (retired record) | 1 | 0.391 | 0.0497 | -1.52 | inactive
IK | 1 | 4.3 | 4.23 | 4.05 | active
AOC1 | 1 | -1.49 | -1.46 | -1.32 | inactive
BCKDHA | 1 | 1.48 | 1.11 | 1.11 | inactive
NUP133 | 1 | -0.994 | -1.52 | -1.03 | inactive
HS6ST2 | 1 | 1.24 | -0.0301 | 0.919 | inactive
LOC340765 (retired record) | 1 | -0.222 | -0.265 | -0.0862 | inactive
CFAP74 | 1 | 0.278 | 0.158 | 0.505 | inactive
CFAP74 | 2 | -0.516 | -0.643 | -0.837 | inactive
GADD45G | 1 | 0.0978 | -0.0454 | -0.804 | inactive
SPATA31H1 | 1 | 1.31 | 1.59 | 1.51 | inactive
SNX9 | 1 | -0.353 | -0.429 | -0.522 | inactive
HAPSTR2 | 1 | 0.962 | 1.25 | 0.769 | inactive
LOC149709 (retired record) | 1 | -1.03 | -1.55 | -0.277 | inactive
RAD51B | 1 | 0.981 | 1.25 | 1.67 | inactive
LOC440990 (retired record) | 1 | 0.368 | 0.485 | 0.34 | inactive
AMIGO3 | 1 | -0.405 | -0.445 | -0.0301 | inactive
PIP5KL1 | 1 | 0.457 | 0.331 | 0.304 | inactive
XPNPEP3 | 1 | 0.795 | 0.919 | 0.806 | inactive
DHRS2 | 1 | -1.29 | -0.926 | -1.25 | inactive
HEPN1 | 1 | 0.0727 | -0.133 | -1.13 | inactive
POU3F3 | 1 | -0.238 | -0.143 | -0.0559 | inactive
OR6K6 | 1 | -0.0513 | -0.0964 | -0.0298 | inactive
ZNF142 | 1 | -0.56 | -0.467 | -0.649 | inactive
LOC440391 (retired record) | 1 | 0.34 | 0.0701 | 0.178 | inactive
UGGT2 | 1 | -0.33 | 0.107 | 0.146 | inactive
PITPNB | 1 | -1.58 | -2.27 | -2.22 | active
LINC02145 | 1 | -2.46 | -2.55 | -2.68 | active
CENPE | 1 | 2.62 | 1.4 | 3.9 | inactive
TENM4 | 1 | 1.33 | 1.21 | 1.99 | inactive
CAPSL | 1 | 0.736 | 0.135 | 0.433 | inactive
ADAMTS2 | 1 | -1.58 | -1.32 | -1.67 | inactive
CTNNBL1 | 1 | -2.01 | -0.661 | -2.31 | active
UFD1 | 1 | 0.394 | -0.242 | -1.14 | inactive
LHPP | 1 | -0.159 | -0.487 | -0.0997 | inactive
CDR1 | 1 | 0.962 | -0.87 | 1.8 | inactive
RPS6KC1 | 1 | -0.33 | -1.94 | -0.459 | inactive
MIEF2 | 1 | -1.19 | -0.805 | -0.823 | inactive
SWAP70 | 1 | -0.727 | -0.0132 | -0.584 | inactive
ELF5 | 1 | -0.391 | 2.33 | 0.775 | inactive
RUNDC3B | 1 | -0.7 | -0.0266 | -0.572 | inactive
ITPA | 1 | -0.796 | -1.19 | -0.693 | inactive
PHRF1 | 1 | 0.352 | -0.622 | -0.841 | inactive
SLC16A2 | 1 | 0.943 | 1.98 | 1.09 | inactive
ANKRD16 | 1 | 0.772 | -1.01 | -0.0848 | inactive
C7 | 1 | 1.94 | 1.14 | 2.66 | active
ABR | 1 | -0.46 | -0.292 | 0.00742 | inactive
B3GAT1-DT | 1 | 1.54 | 1.64 | 1.66 | inactive
SEZ6L | 1 | -1.47 | -0.972 | -1.92 | inactive
CASP1 | 1 | 2.62 | 4.4 | 3.65 | active
HEPH | 1 | 0.543 | 1.12 | 1.06 | inactive
ST8SIA1 | 1 | -0.398 | -0.32 | -1.95 | inactive
BIVM | 1 | 0.293 | 0.0411 | -2.24 | inactive
KLC4 | 1 | 0.451 | 0.495 | -0.685 | inactive
SSTR1 | 1 | -0.122 | -0.575 | 0.23 | inactive
TBXT | 1 | -0.312 | -0.554 | -0.529 | inactive
LOC441612 (retired record) | 1 | -0.736 | -0.384 | -0.62 | inactive
TMEM190 | 1 | 0.827 | 0.422 | 0.93 | inactive
TRMT9B | 1 | -0.136 | 0.839 | 1.66 | inactive
TRMT9B | 2 | 1.01 | 0.575 | 0.768 | inactive
MYO1D | 1 | 0.112 | 1.72 | -0.221 | inactive
ZPBP2 | 1 | 1.38 | 1.73 | 2.73 | inactive
ADORA3 | 1 | 2.15 | 0.206 | 1.57 | inactive
CNOT8 | 1 | -0.308 | -0.45 | -0.578 | inactive
OR1N1 | 1 | -1.33 | -1.7 | -1.9 | inactive
HSD17B13 | 1 | 0.103 | -0.685 | 0.644 | inactive
POPDC1 | 1 | 0.208 | -0.71 | -1.16 | inactive
SMYD1 | 1 | 1.48 | 1.6 | 1.51 | inactive
TPBG | 1 | 0.134 | 1.21 | 0.896 | inactive
RNF212 | 1 | 0.765 | 0.827 | 0.454 | inactive
H1-4 | 1 | 0.207 | -0.0443 | 0.222 | inactive
LOC284397 (retired record) | 1 | 1.09 | 0.791 | 1.02 | inactive
BRAP | 1 | 1.92 | -0.158 | 0.51 | inactive
MAP3K13 | 1 | -0.158 | 0.615 | -0.507 | inactive
DYNC2H1 | 1 | 2.16 | 2.61 | 2.07 | active
LOC440825 (retired record) | 1 | 0.47 | -0.203 | -0.508 | inactive
LOC441031 (retired record) | 1 | 0.61 | 0.906 | 1.12 | inactive
SARNP | 1 | 0.14 | -0.0107 | -0.127 | inactive
GRIK3 | 1 | -0.671 | -1.2 | -0.366 | inactive
MPST | 1 | -0.39 | -0.75 | -1.33 | inactive
HNRNPA1P20 | 1 | 0.0111 | 0.0565 | -0.00605 | inactive
ROMO1 | 1 | -0.0461 | 0.282 | -0.111 | inactive
TOE1 | 1 | 1.09 | 0.615 | 0.485 | inactive

An excerpt from above, showing only “robust z-score, replicate 3”.
BCKDHA	1.11
NUP133	-1.03
HS6ST2	0.919
LOC340765 (retired record)	-0.0862
CFAP74 #1	0.505
CFAP74 #2	-0.837
